The match of structure and compound is tentative.

By UniProt entry, the sequences of proteins in these tests, tags left out. Where a name states a change or a piece, a line headed by the entry shows the natural chain unless it says otherwise.
UniProt P41597, whole entry: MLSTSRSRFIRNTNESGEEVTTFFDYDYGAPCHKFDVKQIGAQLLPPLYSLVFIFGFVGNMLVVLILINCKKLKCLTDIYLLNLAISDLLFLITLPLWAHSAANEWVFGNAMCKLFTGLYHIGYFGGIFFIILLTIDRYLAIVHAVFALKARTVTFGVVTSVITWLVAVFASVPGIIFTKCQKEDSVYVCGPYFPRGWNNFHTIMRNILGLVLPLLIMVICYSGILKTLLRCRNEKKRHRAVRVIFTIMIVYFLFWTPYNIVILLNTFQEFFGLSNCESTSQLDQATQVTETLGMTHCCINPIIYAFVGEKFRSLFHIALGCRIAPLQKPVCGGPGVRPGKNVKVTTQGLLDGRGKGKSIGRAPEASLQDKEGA

Test [1] deals with CHOK1 cells engineered to overexpress human CCR2 (Homo sapiens, UniProt P41597). In words: Antibody dependent cellular cytotoxicity (ADCC) reporter assay (Example 199). The note with it: with anti-cotinine antibody (SEQ ID NO: 11/12); Jurkat FcγRIIIa NFAT-luciferase reporter cells; 12-18 hours; EC50 in molar; average or individual runs. The procedure: An antibody dependent cellular cytoxocity reporter assay was conducted using the following four assay components: (i) ARM compound of Formula (I) targeting CCR2 (concentrations ranging from […] to 10 μM) (ii) anti-cotinine antibody having a heavy chain sequence of SEQ ID NO: 11 and a light chain sequence of SEQ ID NO: 12 (rabbit variable region with human IgG1 Fc domain containing a DE mutation (S239D/1332E)) (concentrations ranging from 0.01 μg/mL to 200 μg/mL); (iii) target cells: CHOK1 cells engineered to overexpress either human CCR2 (typically 1000-20,000 cells per well) and (iv) reporter cells: Jurkat cells engineered to express FcγRIIIa with the reporter gene luciferase under the control of the NFAT promoter (typically 3000-75,000 cells per well). Reagents were combined in a final volume of 20 μL in a 384-well tissue culture treated plate. […] Luminescence signal was measured on a microplate reader and signal: background was calculated by dividing the signal of a test well by the signal obtained when no heterobivalent compound of Formula (I) was added. […]
ARMs compounds of Formula (I) of the invention were tested for ADCC activity in the above assay in or more experimental runs and the results are shown in Table 3 below. […] The pEC50 value is the negative log of the EC50 value, wherein the EC50 value is the half maximal effective concentration measured in molar (M). […]

In test [2] the test system is endogenous target monocytes in human PBMC. In words: PBMC ex vivo monocyte depletion flow cytometry assay (Example 200). The note with it: with anti-cotinine antibody (SEQ ID NO: 11/12), 18-24 hours, EC50 in molar. The procedure: A human PBMC (peripheral blood mononuclear cells) monocyte depletion flow cytometry assay was developed to screen compounds in a 384-well plate format. This assay incorporated endogenous natural killer cells to deplete endogenous target monocytes.
To screen compounds in the human PBMC monocyte depletion flow cytometry assay, 11-point dose-response curves were made from 1 mM stocks in neat DMSO by serially diluting an ARM compound of Formula (I) four-fold into a 384-well plate row-wise. These serially diluted compounds were then stamped into a flat bottom polypropylene 384-well plate (Greiner Bio-One) at 100 nL/well. […]
After 18-24 hours incubation, 2 μL of 6.25 μg human FC block (BD Pharmingen) that was diluted in assay medium was added to the wells of the plate. […] Samples from the plate were run on BD FACS Canto II flow cytometer and data was analyzed using FlowJo software.
ARMs compounds of Formula (I) of the invention were tested for the ability to deplete monocytes in the above assay in one or more experimental runs and the results are shown in Table 3 below. […] The pEC50 value is the negative log of the EC50 value, wherein the EC50 value is the half maximal effective concentration measured in molar (M). For compounds tested in more than one experimental run, the pEC50 value is reported as an average or as the individual values measured
A general note: A flow cytometer gives signals particle by particle.

On to `CC(C)N(C)[C@@H]1CC[C@H](N2CC[C@H](Nc3ncnc4ccc(C(F)(F)F)cc34)C2=O)[C@H](NC(=O)C2CCN(C3CCN(C(=O)CCCCCCCNC(=O)[C@@H]4CC(=O)N(C)[C@H]4c4cccnc4)CC3)CC2)C1`, for which, in test [1], the “ADCC Reporter Assay pEC50” value came out at 8.6. The “Ex Vivo Depletion Assay pEC50” value in test [2] came to 9.3.

(Values after patent publication US12521393B2, “Cytotoxicity targeting chimeras for CCR2-expressing cells” (GLAXOSMITHKLINE INTELLECTUAL PROPERTY DEVELOPMENT LIMITED, priority 2021, dated 2026).)
